Hit rate of the full screen: of about 400,000 compounds, about 13,000 (3.2%) were called active. Inconclusive means that the source gave no clear call. Such entries were picked first, then a sample of the others. The call rests on the fitted dose curve; in most records, active means well fitted cell-killing curve with a large enough effect; inconclusive means small, poorly fitted or top-dose-only effect, or effect the other way; inactive means flat fitted curve, though single readings scatter. A potency beside an inconclusive call is a rough fit, not a confirmed value.
Assay: qHTS assay for MDR1-selective chemotherapeutics: Primary screen using the drug-selected MDR subline cells KB-V1; further: nearly all actives have a fitted effect of over 60% in size
Conditions: KB-V1 MDR cells viability, CellTiter-Glo, 72 h; activity change, negative = cytotoxicity: at 46.1 µM (top of the series)
Procedure, shortened: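 In this primary screen, KB-V1 cells overexpressing P-gp are incubated with library compounds (lowest to highest concentration) for 72 h at 37 degrees C before a luminescent ATP viability read.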
On the % scale 0 is the no-effect control and ±100 the full control effect; potency means the concentration at half of the fitted maximal effect.

SMILES | Potency | activity change, negative = cytotoxicity
COc1ccc(OCCNC(=O)c2ccc3nc(C)c(N(C)Cc4ccc(NC(C)=O)cc4)n3c2)cc1 | inactive | –
COc1ccc(CC(=O)NCC(=O)NC(Cc2ccccc2)C(=O)O)cc1 (stereo not given) | inactive | –
COc1ccccc1C(=O)NCC(=O)NCC1(N2CCCCC2)CCCCC1 | inconclusive: 10.3 µM [cytotoxic, partial curve] | –
CC[C@H](C)/C=C(C)/C=C/C(=O)Cc1cc(O)c(C)c(O)c1C=O | inconclusive: 29.1 µM [rising, single point] | –
Cn1cc(C(=O)NCCO)c(=O)c2ccccc21 | inconclusive: 18.4 µM [rising, single point] | –
Cc1cc(C)cc(-n2ccnc2SCC(=O)Nc2nc3ccccc3s2)c1 | inactive | –
O=C(CCN1CCN(C/C=C/c2ccccc2)CC1)Nc1ccc(Cl)cc1 | – | inconclusive: -51.3%
CCOc1ccccc1NC(=O)c1cc(S(=O)(=O)N2CCOCC2)ccc1C | inconclusive: 29.1 µM [cytotoxic, single point] | –
COc1ccc(C(=O)Nc2c(N)nc(SCC(=O)N3CCC(C)CC3)[nH]c2=O)cc1 | inconclusive: 32.6 µM [rising, partial curve, poor fit] | –
COC(=O)CNC(c1ccccc1)c1cc(Br)ccc1NC(=O)OCc1ccccc1 (stereo not given) | inconclusive: 22.4 µM [cytotoxic, single point] | –
CC(C)NC(=O)C1(C)CCN1C(=O)c1ccccc1F (stereo not given) | inactive | –
CCOc1ccc(CCNC(=O)CS(=O)Cc2nc(-c3ccc(C)cc3)oc2C)cc1OCC (stereo not given) | inactive | –
COc1cc2[nH]c(=O)c(C(=O)NCc3ccc(F)cc3)c(O)c2cc1OC | inactive | –
CCN1C(=O)C(=O)N(CC(=O)NC(C)CCc2ccccc2)C1=O (stereo not given) | inconclusive: 29.1 µM [rising, single point] | –
O=C(c1ccc(Cl)c(Cl)c1)N1CCC(=O)N(C(COCc2ccccc2)Cc2ccccc2)CC1 (stereo not given) | inconclusive: 16.4 µM [cytotoxic, single point] | –
CCN(CC)CCCNc1ccc2ncn3c4ccc(O)cc4c(=O)c1c23 | inconclusive: 6.51 µM [cytotoxic, partial curve] | –
COc1ccc2oc(C)c(C(=O)c3ccc([N+](=O)[O-])cc3)c2c1 | active: 14.6 µM | –
COc1ccc(NC(=O)CN(C)C(=O)/C=C/c2ccc(S(=O)(=O)N3CCCCCC3)cc2)cc1 | active: 20.6 µM | –
Cc1n[nH]c(C)c1Sc1ccccc1N=Cc1cc(Cl)cc([N+](=O)[O-])c1O | inactive | –
CCOC(=O)c1c(C)[nH]c(C)c1S(=O)(=O)N1CCC(C(=O)Nc2ccc(F)cc2F)CC1 | inactive | –

Arranged by SMILES length (high to low): part of the list above
SMILES | Potency | activity change, negative = cytotoxicity
O=C(c1ccc(Cl)c(Cl)c1)N1CCC(=O)N(C(COCc2ccccc2)Cc2ccccc2)CC1 (stereo not given) | inconclusive: 16.4 µM [cytotoxic, single point] | –
Cc1n[nH]c(C)c1Sc1ccccc1N=Cc1cc(Cl)cc([N+](=O)[O-])c1O | inactive | –
CC(C)NC(=O)C1(C)CCN1C(=O)c1ccccc1F (stereo not given) | inactive | –

— PubChem BioAssay AID1347076 (National Center for Advancing Translational Sciences (NCATS), 2019)
